# The other results are listed elsewhere or left out. These are further read-outs of the screen, such as a control signal, another cell line or another target. No call is given for them. Compounds called inactive in the main read-out are mostly missing here. Potencies come from curve fits of mixed quality, noted in brackets.
# Experiment: qHTS Assay for Lipid Storage Modulators in Drosophila S3 Cells;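 on cell number change: cells counted by Cell Tracker Red CMTPX staining in the red channel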
# Conditions: BODIPY lipid droplet fluorescence, 18-24 h; for cell number change: measured here: cell count max response, cells fed with added oleic acid
# In short: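 Drosophila S3 cells got compounds at several concentrations plus oleic acid (400 uM solution). Laser-scanning cytometry with 488 nm excitation read lipid droplets at 500-530 nm and cells at 575-640 nm. Percent activity was relative to 20 uM Triacsin C.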
# [1] = measured here: lipid fluorescence (Fed channel) AC50, cells fed with added oleic acid
# [2] = measured here: cell number channel AC50, cells fed with added oleic acid
Structure (SMILES),cell number change,AC50 [1],AC50 [2]
CCc1ccc(CCC(=O)Nc2nnc(CC)s2)o1,-19%,"0.00517 µM [falling, full curve, poor fit]",
O=C(NCc1cccnc1)C1CCN(S(=O)(=O)N2CCC3(CC2)OCCO3)CC1,16.4%,"29.1 µM [rising, single point]",
COc1ccccc1C(=O)NNC(=O)c1cccc(C)c1,13.2%,"29.1 µM [rising, single point]","3.26 µM [rising, partial curve]"
CCCCCCCNC(=O)C1(CC2CC(c3ccc(Cl)cc3)=NO2)CCN(C(=O)Cc2ccc(F)cc2)CC1 (centres undefined),12.6%,,
N#Cc1ccc(OCC(=O)N2CCN(C(=O)c3ccco3)CC2)cc1,8.42%,"20.6 µM [rising, single point]",
Cc1ccc(CSCCNC(=O)c2ccc(NS(C)(=O)=O)cc2)cc1,-3.43%,"4.61 µM [falling, partial curve]",
COc1ccc(CNC(=O)CCSc2nc(-c3ccc4c(c3)OCO4)cc(C(F)(F)F)n2)cc1,-29.5%,"7.31 µM [falling, single point]",
O=C(NCc1ccco1)c1cc2ccccc2o1,-8.87%,,
O=c1[nH]c2ccccc2[nH]c1=O,22.6%,,
O=C(Nc1cccc(C(=O)N2CCOCC2)c1)NC1CCCCC1,2.65%,,
CCC(C)(C)c1ccc(Oc2ccc(NC(=O)COC(=O)C3=COCCO3)cc2)cc1,-48.1%,"1.64 µM [falling, partial curve, poor fit]","29.1 µM [falling, single point]"
O=S(=O)(c1cccc(C(F)(F)F)c1)N1CCN(C(=S)NCc2ccco2)CC1,-16.7%,"0.0517 µM [falling, full curve]",
O=C(c1ccc(COc2ccc(Cl)cc2Cl)o1)N1CCCC1,-4.05%,,
C[C@@H]1[C@H](O)C[C@@]23COC(=O)C2=CCCC3[C@@]1(C)CCC1COC(=O)C1 (some centres undefined),15.4%,"29.1 µM [rising, single point]",
CC(C)(C)OC(=O)NCc1ccc(CNC(=O)c2[nH]cnc2C(=O)N[C@@H](Cc2ccccc2)C(=O)OC(C)(C)C)cc1,43.1%,,"18.4 µM [rising, partial curve, poor fit]"
COc1cccc(/C=C/C(=O)Nc2cc(S(=O)(=O)N3CCOCC3)ccc2OC)c1,,,"2.06 µM [rising, partial curve, poor fit]"
CCOc1ccc(-n2c(SCC(=O)OC)nc3sc4c(c3c2=O)CCN(C)C4)cc1,22.5%,"0.231 µM [falling, full curve, poor fit]",
CCOC(=O)CN1C(=O)C(O)(CC(=O)c2ccco2)c2ccccc21 (centres undefined),9.75%,"5.8 µM [rising, full curve, poor fit]",
CC(=O)c1ccc(NC(=O)C(C)Sc2n[nH]c(-c3cccnc3)n2)cc1 (centres undefined),-3.81%,,
NC(=O)Cn1nc2sc3ccccc3n2c(=O)c1=O,-35.2%,,"32.6 µM [falling, partial curve, poor fit]"

# Part of the list above, tab-delimited.
Structure (SMILES)	cell number change	AC50 [1]	AC50 [2]
CCCCCCCNC(=O)C1(CC2CC(c3ccc(Cl)cc3)=NO2)CCN(C(=O)Cc2ccc(F)cc2)CC1 (centres undefined)	12.6%		
CCOc1ccc(-n2c(SCC(=O)OC)nc3sc4c(c3c2=O)CCN(C)C4)cc1	22.5%	0.231 µM [falling, full curve, poor fit]	

# (further entries)

Structure (SMILES),cell number change,AC50 [1],AC50 [2]
CCOc1ccc2cc(/C=C/C(=O)c3ccco3)c(Cl)nc2c1,,"2.06 µM [rising, partial curve]",
CCN(CC)c1ccc2c(C)c(-c3ccc(N)cc3)c(=O)oc2c1,,"0.411 µM [rising, full curve]","1.03 µM [rising, partial curve]"
Cn1ncc2c(O/N=C(\N)c3ccc(C(F)(F)F)cc3)ncnc21,15.9%,"0.731 µM [rising, full curve]","3.66 µM [rising, single point]"
COc1ccc(C(=O)CCC(=O)Nc2ccc(N3CCN(C)CC3)cc2)cc1OC,29.5%,"0.206 µM [rising, full curve, poor fit]",
FC(F)(F)c1cccc(Cn2nnnc2-c2ccc(Cl)cc2)c1,-24.9%,,
Cc1cccc(NC(=S)NNC(=O)c2ccc(O)cc2O)c1C,11.3%,,
CCCC(=O)Nc1cc(C)c(NC(=O)C23CC4CC(CC(C4)C2)C3)cn1,13%,,
CCC(C)(C(=O)NC1CCCCC1)N(CC1CCCO1)C(=O)CNC(=O)c1ccccc1 (centres undefined),-42.9%,,"29.1 µM [falling, single point]"
CC1(C)CC(=O)CC(C)(C)N1OC(=O)c1ccccn1,,"16.4 µM [falling, partial curve]",
CC(C)(C)C1=CC(=O)C(N2CCOCC2)=CC1=O,,"29.1 µM [falling, partial curve, poor fit]",
CCOC(=O)c1nnn(-c2nonc2N)c1CSc1ccccc1,76.4%,"0.82 µM [rising, partial curve]","0.731 µM [rising, full curve]"
CCC1Oc2ccccc2N(CC(=O)NCCC2=CCCCC2)C1=O (centres undefined),13.5%,"14.6 µM [rising, partial curve, poor fit]",
Cc1ncc([N+](=O)[O-])n1CCOC(=O)Nc1ccc(Cl)c(Cl)c1,-25.7%,"29.1 µM [falling, single point]",
CCOC(=O)c1sc2ccc(S(=O)(=O)N3CC(C)CC(C)C3)cc2c1N (centres undefined),41.6%,"4.11 µM [rising, single point]","3.66 µM [rising, full curve]"
Cc1nc(SCc2ccc([N+](=O)[O-])cc2)n[nH]1,16.1%,,
CN(C)S(=O)(=O)N1CCC(Oc2cccc(C(=O)NC3CCOC3)c2)CC1 (centres undefined),11.1%,"29.1 µM [rising, single point]",
CCOC(=O)c1sc(NC(=O)c2ccncc2)c(C#N)c1C,23.4%,"0.291 µM [rising, full curve]",
Cc1c(NC(=O)CN2c3ccccc3CC2C)c(=O)n(-c2ccccc2)n1C (centres undefined),-20.8%,"1.46 µM [falling, partial curve]",
O=C(COc1ccccc1)Nc1nnc(-c2ccccc2)o1,-30.2%,"0.164 µM [rising, full curve, poor fit]","0.00461 µM [falling, full curve, poor fit]"
Cc1nc2scc(C)n2c(=O)c1S(=O)(=O)NC(C)c1ccccc1 (centres undefined),-0.382%,"6.51 µM [falling, single point]",

# Quoted from the listing:
# cell number change, CCCC(=O)Nc1cc(C)c(NC(=O)C23CC4CC(CC(C4)C2)C3)cn1 reads 13%
# AC50 [1], CCOC(=O)CN1C(=O)C(O)(CC(=O)c2ccco2)c2ccccc21 (centres undefined) reads 5.8 µM [rising, full curve, poor fit]

# The results go on:

Structure (SMILES),cell number change,AC50 [1],AC50 [2]
O=C(CCCc1ccccc1)NCCc1ccc(F)cc1,-1.59%,"3.66 µM [falling, single point]",
Cc1cccc(N2CCN(C(=O)c3cc4cc(F)ccc4[nH]3)CC2)c1C,15.7%,"6.51 µM [rising, full curve, poor fit]",
NC(=O)CN1C(=O)NC(c2ccccc2)(c2ccccc2)C1=O,,"0.146 µM [falling, full curve, poor fit]",
CC1O[C@@H](O[C@H](C)CC[C@@H](C)O[C@H]2OC(C)[C@@H](O)C[C@H]2O)C(O)C[C@H]1O (some centres undefined),-4.37%,"0.00461 µM [falling, full curve, poor fit]",
Cc1cc(C(=O)CSc2ncnc3ccccc23)c(C)n1C1CC1,-22.1%,"1.84 µM [falling, partial curve]",
CCOC(=O)Cn1c(C)nc2c(C(=O)OCC)sc(C)c2c1=O,-5.75%,"0.00651 µM [rising, full curve, poor fit]",
CNC(=S)NC1CC2CCCC(C1)N2Cc1ccco1 (centres undefined),-97.1%,"18.4 µM [falling, partial curve]","18.4 µM [falling, partial curve]"
Cc1cc2oc(C(=O)Nc3ccc(S(=O)(=O)Nc4onc(C)c4C)cc3)cc(=O)c2cc1Cl,-13.6%,"0.13 µM [falling, full curve]",
COc1ccccc1OCCc1nnc(N)s1,16%,"0.517 µM [falling, single point]",
O=C(COC(=O)c1ccc(S(=O)(=O)Nc2ccccc2)cc1)NC1CCCC1,-42.3%,"29.1 µM [falling, partial curve, poor fit]","11.6 µM [falling, single point]"
Nc1ccc(C(=O)N2CCN(S(=O)(=O)c3ccc4c(c3)OCCO4)CC2)cc1[N+](=O)[O-],28.4%,"10.3 µM [rising, partial curve, poor fit]","2.06 µM [rising, full curve, poor fit]"
COC(=O)CCC(=O)Nc1cccc2c(NC(=O)CCC(=O)OC)cccc12,-106%,,"29.1 µM [falling, single point]"
O=[N+]([O-])c1cc(C(F)(F)F)ccc1N1CCN(CCO)CC1,-40.4%,,"0.411 µM [falling, full curve]"
COc1cccc(N2CCN(C(=O)c3cc4c(s3)CCCCC4)CC2)c1,20.2%,"6.51 µM [rising, partial curve, poor fit]",
CC1CCN(C(=O)c2[nH]cnc2C(=O)N[C@H](C)c2ccccc2)CC1,-8.41%,"0.0517 µM [falling, full curve, poor fit]","0.82 µM [falling, full curve, poor fit]"
O=C1c2ccccc2NC(c2ccc(Br)o2)N1O (centres undefined),-13.5%,"0.411 µM [rising, partial curve, poor fit]",
CCCn1nc(NC(=O)c2ccco2)c2cc3ccccc3nc21,-15%,"35.5 µM [falling, single point]",
CCN(c1ccccc1)S(=O)(=O)c1ccc(C(C(=O)OC)C(=O)OC)c([N+](=O)[O-])c1,15.7%,,
Cc1n[nH]c(=O)c2c(NC(=O)CSc3ccc(F)cc3)oc(C)c12,54%,,"5.17 µM [rising, partial curve]"
Cn1c(=O)c2c(ncn2CCc2ccccc2)n(C)c1=O,96.8%,,"29.1 µM [rising, single point]"

# Source: PubChem BioAssay AID2685 (National Center for Advancing Translational Sciences (NCATS), 2010)
